Experimental data published in paper PMC4474612.
These are yes or no findings as the source states them, for the method shown. Binding seen in cells or lysates may run through a third protein. Here binding means that the protein was enriched with, or labelled near, the bait; the list need not be complete. For some assays here: A no says only that the protein was not detected with the bait. For some assays here: Where a sequence is shown, tags or fusion partners need not be part of it.

T1: SPA-MreB (MreB fused to the sequential peptide affinity tag) (Bacillus subtilis) (UniProt Q01465)
T1 sequence: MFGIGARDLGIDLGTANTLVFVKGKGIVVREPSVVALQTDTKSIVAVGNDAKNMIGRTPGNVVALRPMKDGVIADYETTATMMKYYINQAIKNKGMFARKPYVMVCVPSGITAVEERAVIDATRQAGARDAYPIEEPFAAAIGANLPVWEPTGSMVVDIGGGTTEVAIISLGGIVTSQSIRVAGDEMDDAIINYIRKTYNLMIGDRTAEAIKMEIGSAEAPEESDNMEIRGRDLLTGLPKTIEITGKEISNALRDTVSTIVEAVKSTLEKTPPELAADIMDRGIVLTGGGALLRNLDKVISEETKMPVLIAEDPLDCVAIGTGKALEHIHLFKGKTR

T2: PerR-SPA (Bacillus subtilis) (UniProt P71086)
T2 sequence: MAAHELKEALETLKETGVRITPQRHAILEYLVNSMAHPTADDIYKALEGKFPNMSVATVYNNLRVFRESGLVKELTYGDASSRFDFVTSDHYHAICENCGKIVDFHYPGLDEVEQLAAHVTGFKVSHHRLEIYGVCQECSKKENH


Key:
[1] = target: T1, SPA-MreB (MreB fused to the sequential peptide affinity tag) (Bacillus subtilis); assay: affinity purification with mass spectrometry; SPA-tag purification from B. subtilis cells grown to T2 in competence medium with 0.4% xylose; cryogenic grinding; buffer A (Tris-HCl pH 7,5 10 mM, NaCl 150 mM, EDTA 0,2 mM, Triton 0,1 mM, protease inhibitors); eluted proteins quantified by LC-MS/MS in 3 independent experiments; controls: no SPA-tagged protein (NC60) and PerR-SPA (NC135)
[2] = target: T2, PerR-SPA (Bacillus subtilis); assay: as above

Binder	binding [1]	binding [2]
Maf (protein, UniProt Q02169 1-189) MTKPLILASQSPRRKELLDLLQLPYSIIVSEVEEKLNRNFSPEENVQWLAKQKAKAVADLHPHAIVIGADTMVCLDGECLGKPQDQEEAASMLRRLSGRSHSVITAVSIQAENHSETFYDKTEVAFWSLSEEEIWTYIETKEPMDKAGAYGIQGRGALFVKKIDGDYYSVMGLPISKTMRALRHFDIRA	binds	
ComEB (protein, UniProt P32393 1-189) MERISWNQYFMAQSHLLALRSTCPRLSVGATIVRDKRMIAGGYNGSIAGGVHCADEGCLMIDDHCARTIHAEMNAILQCSKFGVPTDGAEIYVTHYPCIQCCKSIIQAGIKTVYYAEDYKTHPYAQELFEQAGVTVEQVELDEMIVDLKNREKLSFVAGLIGKLADAGLAEEELKKIHEQANTLFTSYV	binds	no binding
ComC (protein, UniProt P15378 1-248) MLSILFIFGLILGSFYYTAGCRIPLHLSIIAPRSSCPFCRRTLTPAELIPILSFLFQKGKCKSCGHRISFMYPAAELVTACLFAAAGIRFGISLELFPAVVFISLLIIVAVTDIHFMLIPNRILIFFLPFLAAARLISPLDSWYAGLLGAAAGFLFLAVIAAITHGGVGGGDIKLFAVIGFVLGVKMLAAAFFFSVLIGALYGAAAVLTGRLAKRQPLPFAPAIAAGSILAYLYGDSIISFYIKMALG	binds	no binding
ComFA (protein, UniProt P39145 1-463) MNVPVEKNSSFSKELQQTLRSRHLLRTELSFSDEMIEWHIKNGYITAENSISINKRRYRCNRCGQTDQRYFSFYHSSGKNKLYCRSCVMMGRVSEEVPLYSWKEENESNWKSIKLTWDGKLSSGQQKAANVLIEAISKKEELLIWAVCGAGKTEMLFPGIESALNQGLRVCIATPRTDVVLELAPRLKAAFQGADISALYGGSDDKGRLSPLMISTTHQLLRYKDAIDVMIIDEVDAFPYSADQTLQFAVQKARKKNSTLVYLSATPPKELKRKALNGQLHSVRIPARHHRKPLPEPRFVWCGNWKKKLNRNKIPPAVKRWIEFHVKEGRPVFLFVPSVSILEKAAACFKGVHCRTASVHAEDKHRKEKVQQFRDGQLDLLITTTILERGVTVPKVQTGVLGAESSIFTESALVQIAGRTGRHKEYADGDVIYFHFGKTKSMLDARKHIKEMNELAAKVECTD	binds	no binding
ComGA (protein, UniProt P25953 1-356) MDSIEKVSKNLIEEAYLTKASDIHIVPRERDAIIHFRVDHALLKKRDMKKEECVRLISHFKFLSAMDIGERRKPQNGSLTLKLKEGNVHLRMSTLPTINEESLVIRVMPQYNIPSIDKLSLFPKTGATLLSFLKHSHGMLIFTGPTGSGKTTTLYSLVQYAKKHFNRNIVTLEDPVETRDEDVLQVQVNEKAGVTYSAGLKAILRHDPDMIILGEIRDAETAEIAVRAAMTGHLVLTSLHTRDAKGAIYRLLEFGINMNEIEQTVIAIAAQRLVDLACPFCENGCSSVYCRQSRNTRRASVYELLYGKNLQQCIQEAKGNHANYQYQTLRQIIRKGIALGYLTTNNYDRWVYHEKD		no binding
